{"source": "the supplement of paper PMC8728848", "binders": {"B1": {"name": "GS13599A-bth-520-23-520 (Bacteroides thetaiotaomicron) (protein)", "chain": "SEDTMDRINKDHDHTTSVASRFILADVITSTAFSNASGDINTYASSYIEYEVGVDNQLYYAEVRENEPSSSSTFNNSWNGIYSSLKNARIIIDQCGEGGRDHGNDVTRGMAEVMAAYNCALIADFFGDAPCSQAALVDEKGSPVYMTPKMDTQQEIYTQIISYLDDAIANLQKEDLADVTEQDFLYAGDADKWLKFAYGLKARYTMRLINRSSNKSADYEKVLDYVSKSFTSADDQAAFDIYDSNNINPFYGFYNSRAGFGASTSLGTKLLAYNDPRANRAFFTPIVDKKRSQVAANDPSLVPAPNGSPDQSTSKYGISAFVYAKTAPTLLMSYHELMFLKAEALCRLNRDAEDALKEAVVAGLLNAENSISIAIKELGSGLNTNSSEVITETSAGKYFDDVVKAKYAANPLQETMIQKYLAMWGASGEATETYNDFRRMKGLNENFITLTNPNNSSKFPLRYPYGNSDTAANPEVKAAYGNGDYVYSEPVWWAGGSR"}}, "assay_in_all_cases": "glycan array binding signal (z-score within array); higher = stronger binding", "settings_in_all_cases": "glycan notation: IUPAC condensed, linker removed", "key": {"[1]": {"target": "Neu5Ac(a2-3)Gal(b1-4)GlcNAc(b1-2)[Neu5Ac(a2-3)Gal(b1-4)GlcNAc(b1-4)]Man(a1-3)[GlcNAc(b1-4)][Neu5Ac(a2-3)Gal(b1-4)GlcNAc(b1-4)Man(a1-6)]Man(b1-4)GlcNAc(b1-4)GlcNAc", "outline": "(§1)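 Negative Z-scores can be read as non-binding. The Z-score is calculated within each array and then averaged across arrays of one protein sequence at different concentrations or buffers and across linkers. Arrays, 3228 in all, were curated from the Consortium for Functional Glycomics database and kept only where the protein sequence was available.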"}, "[2]": {"target": "Neu5Ac(a2-3)Gal(b1-4)GlcNAc(b1-2)[Neu5Ac(a2-3)Gal(b1-4)GlcNAc(b1-6)]Man(a1-6)[Neu5Ac(a2-3)Gal(b1-4)GlcNAc(b1-2)Man(a1-3)]Man(b1-4)GlcNAc(b1-4)GlcNAc", "outline": "as §1"}, "[3]": {"target": "Neu5Ac(a2-3)Gal(b1-4)GlcNAc(b1-2)[Neu5Ac(a2-3)Gal(b1-4)GlcNAc(b1-6)]Man(a1-6)[Neu5Ac(a2-3)Gal(b1-4)GlcNAc(b1-2)Man(a1-3)][GlcNAc(b1-4)]Man(b1-4)GlcNAc(b1-4)GlcNAc", "outline": "as §1"}, "[4]": {"target": "Neu5Ac(a2-3)Gal(b1-4)GlcNAc(b1-3)Gal", "outline": "as §1"}, "[5]": {"target": "Neu5Ac(a2-3)Gal(b1-4)GlcNAc(b1-3)Gal(b1-3)GlcNAc", "outline": "as §1"}, "[6]": {"target": "Neu5Ac(a2-3)Gal(b1-4)GlcNAc(b1-3)Gal(b1-4)GlcNAc", "outline": "as §1"}, "[7]": {"target": "Neu5Ac(a2-3)Gal(b1-4)GlcNAc(b1-3)Gal(b1-4)GlcNAc(b1-2)Man(a1-3)[Neu5Ac(a2-3)Gal(b1-4)GlcNAc(b1-3)Gal(b1-4)GlcNAc(b1-2)Man(a1-6)]Man(b1-4)GlcNAc(b1-4)GlcNAc", "outline": "as §1"}, "[8]": {"target": "Neu5Ac(a2-3)Gal(b1-4)GlcNAc(b1-3)Gal(b1-4)GlcNAc(b1-3)Gal(b1-4)GlcNAc", "outline": "as §1"}, "[9]": {"target": "Neu5Ac(a2-3)Gal(b1-4)GlcNAc(b1-3)Gal(b1-4)GlcNAc(b1-3)Gal(b1-4)GlcNAc(b1-2)Man(a1-3)[Neu5Ac(a2-3)Gal(b1-4)GlcNAc(b1-3)Gal(b1-4)GlcNAc(b1-3)Gal(b1-4)GlcNAc(b1-2)Man(a1-6)]GalNAc", "outline": "as §1"}, "[10]": {"target": "Neu5Ac(a2-3)Gal(b1-4)GlcNAc(b1-3)Gal(b1-4)GlcNAc(b1-3)GalNAc", "outline": "as §1"}, "[11]": {"target": "Neu5Ac(a2-3)Gal(b1-4)GlcNAc(b1-3)Gal(b1-4)GlcNAc(b1-3)[Neu5Ac(a2-3)Gal(b1-4)GlcNAc(b1-3)Gal(b1-4)GlcNAc(b1-6)]GalNAc", "outline": "as §1"}, "[12]": {"target": "Neu5Ac(a2-3)Gal(b1-4)GlcNAc(b1-3)Gal(b1-4)GlcNAc(b1-6)[Gal(b1-3)]GalNAc", "outline": "as §1"}, "[13]": {"target": "Neu5Ac(a2-3)Gal(b1-4)GlcNAc(b1-3)Gal(b1-4)[Fuc(a1-3)]GlcNAc", "outline": "as §1"}, "[14]": {"target": "Neu5Ac(a2-3)Gal(b1-4)GlcNAc(b1-3)GalNAc", "outline": "as §1"}, "[15]": {"target": "Neu5Ac(a2-3)Gal(b1-4)GlcNAc(b1-3)[Neu5Ac(a2-3)Gal(b1-4)GlcNAc(b1-6)]GalNAc", "outline": "as §1"}, "[16]": {"target": "Neu5Ac(a2-3)Gal(b1-4)GlcNAc(b1-6)GalNAc", "outline": "as §1"}, "[17]": {"target": "Neu5Ac(a2-3)Gal(b1-4)GlcNAc(b1-6)[Gal(b1-3)]GalNAc", "outline": "as §1"}, "[18]": {"target": "Neu5Ac(a2-3)Gal(b1-4)GlcNAc(b1-6)[Neu5Ac(a2-3)Gal(b1-3)]GalNAc", "outline": "as §1"}, "[19]": {"target": "Neu5Ac(a2-3)Gal(b1-4)GlcNAc6S", "outline": "as §1"}, "[20]": {"target": "Neu5Ac(a2-3)Gal(b1-4)[Fuc(a1-3)]GlcNAc", "outline": "as §1"}, "[21]": {"target": "Neu5Ac(a2-3)Gal(b1-4)[Fuc(a1-3)]GlcNAc(b1-2)Man", "outline": "as §1"}, "[22]": {"target": "Neu5Ac(a2-3)Gal(b1-4)[Fuc(a1-3)]GlcNAc(b1-3)Gal", "outline": "as §1"}, "[23]": {"target": "Neu5Ac(a2-3)Gal(b1-4)[Fuc(a1-3)]GlcNAc(b1-3)Gal(b1-4)GlcNAc", "outline": "as §1"}, "[24]": {"target": "Neu5Ac(a2-3)Gal(b1-4)[Fuc(a1-3)]GlcNAc(b1-3)Gal(b1-4)[Fuc(a1-3)]GlcNAc(b1-3)Gal(b1-4)[Fuc(a1-3)]GlcNAc", "outline": "as §1"}, "[25]": {"target": "Neu5Ac(a2-3)Gal(b1-4)[Fuc(a1-3)]GlcNAc(b1-3)GalNAc", "outline": "as §1"}, "[26]": {"target": "Neu5Ac(a2-3)Gal(b1-4)[Fuc(a1-3)]GlcNAc(b1-6)[Gal(b1-3)]GalNAc", "outline": "as §1"}, "[27]": {"target": "Neu5Ac(a2-3)Gal(b1-4)[Fuc(a1-3)]GlcNAc(b1-6)[Neu5Ac(a2-3)Gal(b1-3)]GalNAc", "outline": "as §1"}, "[28]": {"target": "Neu5Ac(a2-3)Gal(b1-4)[Fuc(a1-3)]GlcNAc6S", "outline": "as §1"}, "[29]": {"target": "Neu5Ac(a2-3)Gal6S(b1-4)GlcNAc", "outline": "as §1"}, "[30]": {"target": "Neu5Ac(a2-3)Gal6S(b1-4)[Fuc(a1-3)]GlcNAc", "outline": "as §1"}, "Neu5Ac(a2-3)GalNAc": {"target": "Neu5Ac(a2-3)GalNAc", "outline": "as §1"}, "[31]": {"target": "Neu5Ac(a2-3)GalNAc(b1-4)GlcNAc", "outline": "as §1"}, "[32]": {"target": "Neu5Ac(a2-3)[GalNAc(b1-4)]Gal(b1-4)Glc", "outline": "as §1"}, "[33]": {"target": "Neu5Ac(a2-3)[GalNAc(b1-4)]Gal(b1-4)GlcNAc", "outline": "as §1"}, "[34]": {"target": "Neu5Ac(a2-3)[GalNAc(b1-4)]Gal(b1-4)GlcNAc(b1-3)GalNAc", "outline": "as §1"}, "[35]": {"target": "Neu5Ac(a2-3)[Neu5Ac(a2-6)]GalNAc", "outline": "as §1"}, "Neu5Ac(a2-6)Gal": {"target": "Neu5Ac(a2-6)Gal", "outline": "as §1"}}, "note": "The list shows a part of the results."}
{"binder": "B1", "values": [{"measurement": "glycan array binding signal (z-score)", "setting": "[1]", "value": -0.405}, {"measurement": "glycan array binding signal (z-score)", "setting": "[2]", "value": 1.12}, {"measurement": "glycan array binding signal (z-score)", "setting": "[3]", "value": -0.568}, {"measurement": "glycan array binding signal (z-score)", "setting": "[4]", "value": -1.47}, {"measurement": "glycan array binding signal (z-score)", "setting": "[5]", "value": -1.22}, {"measurement": "glycan array binding signal (z-score)", "setting": "[6]", "value": -0.547}, {"measurement": "glycan array binding signal (z-score)", "setting": "[7]", "value": -0.07}, {"measurement": "glycan array binding signal (z-score)", "setting": "[8]", "value": -0.557}, {"measurement": "glycan array binding signal (z-score)", "setting": "[9]", "value": 0.402}, {"measurement": "glycan array binding signal (z-score)", "setting": "[10]", "value": -1.17}, {"measurement": "glycan array binding signal (z-score)", "setting": "[11]", "value": -0.132}, {"measurement": "glycan array binding signal (z-score)", "setting": "[12]", "value": -0.807}, {"measurement": "glycan array binding signal (z-score)", "setting": "[13]", "value": -0.897}, {"measurement": "glycan array binding signal (z-score)", "setting": "[14]", "value": -0.349}, {"measurement": "glycan array binding signal (z-score)", "setting": "[15]", "value": -0.894}, {"measurement": "glycan array binding signal (z-score)", "setting": "[16]", "value": 0.389}, {"measurement": "glycan array binding signal (z-score)", "setting": "[17]", "value": -0.773}, {"measurement": "glycan array binding signal (z-score)", "setting": "[18]", "value": -1.11}, {"measurement": "glycan array binding signal (z-score)", "setting": "[19]", "value": 0.046}, {"measurement": "glycan array binding signal (z-score)", "setting": "[20]", "value": -0.733}, {"measurement": "glycan array binding signal (z-score)", "setting": "[21]", "value": 0.366}, {"measurement": "glycan array binding signal (z-score)", "setting": "[22]", "value": -0.25}, {"measurement": "glycan array binding signal (z-score)", "setting": "[23]", "value": -0.66}, {"measurement": "glycan array binding signal (z-score)", "setting": "[24]", "value": -0.533}, {"measurement": "glycan array binding signal (z-score)", "setting": "[25]", "value": 0.851}, {"measurement": "glycan array binding signal (z-score)", "setting": "[26]", "value": -0.842}, {"measurement": "glycan array binding signal (z-score)", "setting": "[27]", "value": -0.041}, {"measurement": "glycan array binding signal (z-score)", "setting": "[28]", "value": -0.203}, {"measurement": "glycan array binding signal (z-score)", "setting": "[29]", "value": -0.146}, {"measurement": "glycan array binding signal (z-score)", "setting": "[30]", "value": -0.989}, {"measurement": "glycan array binding signal (z-score)", "setting": "Neu5Ac(a2-3)GalNAc", "value": -0.665}, {"measurement": "glycan array binding signal (z-score)", "setting": "[31]", "value": -0.754}, {"measurement": "glycan array binding signal (z-score)", "setting": "[32]", "value": 0.178}, {"measurement": "glycan array binding signal (z-score)", "setting": "[33]", "value": -0.967}, {"measurement": "glycan array binding signal (z-score)", "setting": "[34]", "value": 1.34}, {"measurement": "glycan array binding signal (z-score)", "setting": "[35]", "value": -0.336}, {"measurement": "glycan array binding signal (z-score)", "setting": "Neu5Ac(a2-6)Gal", "value": 0.331}]}
